PubChem BioAssay AID504793, Drosophila RNAi Screening Center – 2011
In all, the deposit lists about 23,000 reagents; shown is an unselected part of those with a known target gene and a result. Of all reagents, 62 (0.27%) were called active. 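Calls come from follow-up tests whose scores are not deposited, so confirmed genes may have low counts here; counts are not normalised per plate.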 Raw values vary from plate to plate and are shown uncorrected. Names joined by + are all predicted targets of the reagent. No sequences are given here.

Test: 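Genes required for cells to halt at G2/M after double-strand DNA breaks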 (primary screen)
System: Drosophila S2R+ cells
Reagent: long dsRNA against Drosophila genes, about 0.25 µg dsRNA per well
Timing: 4 days of dsRNA, then 4 hours of drug before read-out
Challenge: doxorubicin 0.5 µM for 4 hours to cause double-strand breaks, in cells also given a low, harmless dose of dsRNA against nbs to sensitise the assay
Detection: 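Mitotic index as the number of phospho-histone H3-positive cells in each well following doxorubicin, given as raw counts without normalisation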
Scale: mitotic cells: higher = more cells in mitosis, weaker G2 arrest
Call rule: 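a call needs confirmation in secondary tests, with other dsRNAs and a check of mitotic timing without damage, not just a high primary count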
Calls: active = confirmed in follow-up tests; inactive = not confirmed

no.	gene knocked down	dsRNA	mitotic cells, replicate 1	call
1	Atg9 (GeneID 36821)	DRSC06848	5	inactive
2	Rab7 (GeneID 42841)	DRSC16810	8	inactive
3	Jhbp2 (GeneID 40612)	DRSC12292	5	inactive
4	Ass + CG31286	DRSC12493	7	inactive
5	Obp47b + CG7741	DRSC06330	7	inactive
6	Obp47b + CG7741	DRSC27574	4	inactive
7	CG6304 (GeneID 35032)	DRSC02948	7	inactive
8	CG6304 (GeneID 35032)	DRSC27729	3	inactive
9	tth (GeneID 32318)	DRSC19435	9	inactive
10	tth (GeneID 32318)	DRSC25120	6	inactive
11	Osi23 (GeneID 43615)	DRSC15074	13	inactive
12	kairos (GeneID 32815)	DRSC23286	13	inactive
13	kairos (GeneID 32815)	DRSC30011	4	inactive
14	CG14983 (GeneID 38466)	DRSC08441	2	inactive
15	CG14983 (GeneID 38466)	DRSC26428	5	inactive
16	FucTC (GeneID 3355171)	DRSC20966	13	inactive
17	FucTC (GeneID 3355171)	DRSC29686	13	inactive
18	Trx2 (GeneID 34281)	DRSC03622	4	inactive
19	Trx2 (GeneID 34281)	DRSC28288	7	inactive
20	Stt3B (GeneID 43005)	DRSC16781	14	inactive
21	Kyat (GeneID 41433)	DRSC16147	5	inactive
22	CG15366 (retired record) (GeneID 31832)	DRSC18039	9	inactive
23	babo (GeneID 35900)	DRSC07581	6	inactive
24	chm (GeneID 43928)	DRSC03341	9	inactive
25	chm (GeneID 43928)	DRSC24941	3	inactive
26	CG32112 (GeneID 317860)	DRSC09815	5	inactive
27	l(1)G0320 (GeneID 326234)	DRSC18255	7	inactive
28	mrj (GeneID 36797)	DRSC22592	8	inactive
29	mrj (GeneID 36797)	DRSC25295	4	inactive
30	pasi2 (GeneID 41113)	DRSC16380	8	inactive
31	CG10950 (GeneID 36942)	DRSC06020	7	inactive
32	Cat (GeneID 40048)	DRSC11110	8	inactive
33	Cat (GeneID 40048)	DRSC24077	4	inactive
34	CG5122 (GeneID 34703)	DRSC02816	7	inactive
35	CG5068 (GeneID 39032)	DRSC10476	8	inactive
36	CG31200 (GeneID 326124)	DRSC15285	2	inactive
37	Hayan (GeneID 32831)	DRSC19989	8	inactive
38	Hayan (GeneID 32831)	DRSC22231	10	inactive
39	Hayan (GeneID 32831)	DRSC26434	7	inactive
40	COX6CL (GeneID 318868)	DRSC00895	5	inactive
41	Fer1 (GeneID 2768661)	DRSC12507	8	inactive
42	Fer1 (GeneID 2768661)	DRSC12555	4	inactive
43	Fer1 (GeneID 2768661)	DRSC29849	10	inactive
44	Cyp6g2 (GeneID 36317)	DRSC07387	9	inactive
45	Cyp6g2 (GeneID 36317)	DRSC29325	8	inactive
46	upd3 (GeneID 3346149)	DRSC19636	5	inactive
47	upd3 (GeneID 3346149)	DRSC19968	15	inactive
48	upd3 (GeneID 3346149)	DRSC22169	20	inactive
49	Klp61F (GeneID 38135)	DRSC08671	147	inactive
50	Klp61F (GeneID 38135)	DRSC28179	87	inactive
51	Cpr47Eg (GeneID 36196)	DRSC07330	3	inactive
52	lolal (GeneID 44703)	DRSC06948	6	inactive
53	vsg (GeneID 39137)	DRSC10219	5	inactive
54	vsg (GeneID 39137)	DRSC25227	4	inactive
55	CG9072 (GeneID 32443)	DRSC20147	13	inactive
56	GAPsec (GeneID 38987)	DRSC10564	11	inactive
57	GAPsec (GeneID 38987)	DRSC26128	4	inactive
58	Tmtc4 (GeneID 41867)	DRSC15702	7	inactive
59	CG14238 (GeneID 43195)	DRSC14732	9	inactive
60	CG14238 (GeneID 43195)	DRSC29545	4	inactive
61	cutlet (GeneID 44637)	DRSC00284	4	inactive
62	cutlet (GeneID 44637)	DRSC29552	3	inactive
63	CheB42c (GeneID 2768715)	DRSC04972	4	inactive
64	CheB42c (GeneID 2768715)	DRSC27357	3	inactive
65	MsR2 + CG13802 (retired record)	DRSC08336	5	inactive
66	MsR2 + CG13802 (retired record)	DRSC08337	10	inactive
67	MsR2 + CG13802 (retired record)	DRSC22440	12	inactive
68	MsR2 + CG13802 (retired record)	DRSC26863	6	inactive
69	Vps52 (GeneID 33774)	DRSC03050	13	inactive
70	Mal-A6 (GeneID 246565)	DRSC07233	5	inactive
71	Mal-A6 (GeneID 246565)	DRSC27167	6	inactive
72	CG9521 (GeneID 32414)	DRSC20196	8	inactive
73	CG13365 (GeneID 31005)	DRSC17899	10	inactive
74	CG13365 (GeneID 31005)	DRSC27043	5	inactive
75	CG30379 (GeneID 246578)	DRSC05070	4	inactive
76	MsR1 (GeneID 38298)	DRSC08615	4	inactive
77	MsR1 (GeneID 38298)	DRSC26467	7	inactive
78	CG15048 (retired record) (GeneID 32842)	DRSC19624	8	inactive
79	Cpr49Ag (GeneID 36353)	DRSC07203	4	inactive
80	Cpr49Ag (GeneID 36353)	DRSC28612	6	inactive
81	Hsp83 (GeneID 38389)	DRSC08664	5	inactive
82	Hsp83 (GeneID 38389)	DRSC25052	6	inactive
83	CCT1 (GeneID 42649)	DRSC16877	99	inactive
84	CCT1 (GeneID 42649)	DRSC26661	7	inactive
85	O-fut1 (GeneID 36564)	DRSC06138	3	inactive
86	O-fut1 (GeneID 36564)	DRSC26476	7	inactive
87	Klp67A + CG34456	DRSC10420	8	inactive
88	Gar1 (GeneID 37397)	DRSC04441	4	inactive
89	Gar1 (GeneID 37397)	DRSC25331	3	inactive
90	RpS4 (GeneID 39484)	DRSC11272		inactive
91	CG2663 (GeneID 40649)	DRSC12314	5	inactive
92	CG2663 (GeneID 40649)	DRSC28701	7	inactive
93	CG5114 (GeneID 39624)	DRSC10482	4	inactive
94	Galk (GeneID 39031)	DRSC10500	5	inactive
95	Galk (GeneID 39031)	DRSC26987	5	inactive
96	Spn43Ab (GeneID 45040)	DRSC06781	3	inactive
97	Spn43Ab (GeneID 45040)	DRSC28317	5	inactive
98	CG10300 (GeneID 42798)	DRSC14225	10	inactive
99	Nepl16 (GeneID 43014)	DRSC14650	7	inactive
100	CG40378 (retired record) (GeneID 3355048)	DRSC22174	9	inactive
101	CG31560 (GeneID 40772)	DRSC12136	5	inactive
102	nompB (GeneID 35414)	DRSC03701	11	inactive
103	nompB (GeneID 35414)	DRSC03731	8	inactive
104	CG32006 (GeneID 317817)	DRSC21768	6	inactive
105	CG32006 (GeneID 317817)	DRSC28120	4	inactive
106	thw (GeneID 40868)	DRSC12552	7	inactive
107	homer (GeneID 33944)	DRSC03547	11	inactive
108	homer (GeneID 33944)	DRSC29162	6	inactive
109	Mctp (GeneID 37165)	DRSC06510	6	inactive
110	Mctp (GeneID 37165)	DRSC22896	10	inactive
111	Mctp (GeneID 37165)	DRSC25505	6	inactive
112	Mctp (GeneID 37165)	DRSC28921	7	inactive
